Test results taken from paper PMC3551867.

System: T1, GlyR2 (AraC/XylS family regulator)
T1 sequence (looked up): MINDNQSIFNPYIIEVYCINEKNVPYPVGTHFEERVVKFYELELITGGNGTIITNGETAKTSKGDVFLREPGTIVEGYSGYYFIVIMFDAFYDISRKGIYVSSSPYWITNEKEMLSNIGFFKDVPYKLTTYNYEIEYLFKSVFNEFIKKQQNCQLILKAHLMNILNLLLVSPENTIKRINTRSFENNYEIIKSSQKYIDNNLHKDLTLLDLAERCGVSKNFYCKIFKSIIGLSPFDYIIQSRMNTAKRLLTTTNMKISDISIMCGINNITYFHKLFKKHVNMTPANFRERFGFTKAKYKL
Assay: EMSA
Conditions: 10 ug sonicated herring sperm DNA, EMSA: 1x LightShift binding buffer (Pierce), 25-30 fmol probe, ~2 ug (57 pmol) GlyR2, recombinant protein, residues 1-300, protein details: C-terminal His6 (pET22b+, NdeI/XhoI), label: 3'-biotin, probe letters rebuilt from the primers and the genome

Sequence	binding result (100x unlabeled glyR2 probe competes)	binding result (100x unlabeled cel5D probe competes)
CAATTTCTAGTATTAATATAATGATAACACATATAGGTACTTCTGTGGTATAAGAATTTTTAATAATTGAGTAATATATTACAATTGAGTGCTATGTGACAATTGTATTCGAAGATGTCAGTTTATATAATTAAATTAGATAATATGTAAAATTAATACAGGGGGGATTTTTAATGAAAAAGATATTAGCACTGATTATATCGTGCAGTATTATTATGAGCTTTTTACCTATGTCTGTCTATGGTGCTATCAATTCTCAGGATATGGTAAAAAAGATGGGAATAGGAATGAACCTTGGAAATACGTTTGACGCACCAACGGAAGGTTCTTGGTCAAAGGCAGCTCAGGAGTACTATTTTGATGATTTTAAACAGGCCGGTTTCAAGCATGTTAGAATTCCAATCCGTTGGGATCAGCATACACTT (double strand) [PglyR2 probe (425 bp)]	binds	–
GGCGTCGAACTGGAAAGTGCTTTTTAACATTATGAAAGAATAAAAATTAGTACTATTTAAATCCTAGTAAGGAAGATAGTATGATTAATGACAATCAATCAATATTTAATCCCTATATTATTGAGGTTTATTGCATCAACGAAAAAAATGTCCCCTATCCTGTAGGAACCCATTTTGAAGAGAGAGTTGTCAAGTTCTATGAGCTTGAACTAATTACAGGAGGAAATGGAACTATTATTACCAACGGTGAAACTGCTAAAACCTCAAAAGGAGATGTGTTTTTAAGAGAGCCCGGCACAATAGTTGAAGGATATTCTGGTTATTATTTTATTGTCATTATGTTTGACGCTTTTTATGATATATCCAGAAAAGGTATTTACGTAAGCTCTTCCCCTTATTGGATTACAAATG (double strand) [Pcel5D probe (411 bp)]	–	binds

Protein sequences can lack the tags named with them.
